# These are yes or no findings as the source states them, for the method shown. Some binding calls cover weakened binding; strength is not graded here.
# By UniProt entry, the sequences of proteins in these tests, tags left out. Where a name states a change or a piece, a line headed by the entry shows the natural chain unless it says otherwise. Residues count along the entry.
# UniProt P02458, residues 26-181: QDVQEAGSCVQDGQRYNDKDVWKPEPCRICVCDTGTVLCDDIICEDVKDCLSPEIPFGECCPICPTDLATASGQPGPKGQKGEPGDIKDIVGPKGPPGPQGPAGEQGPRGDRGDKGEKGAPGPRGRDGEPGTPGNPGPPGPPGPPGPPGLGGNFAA
# UniProt P35248: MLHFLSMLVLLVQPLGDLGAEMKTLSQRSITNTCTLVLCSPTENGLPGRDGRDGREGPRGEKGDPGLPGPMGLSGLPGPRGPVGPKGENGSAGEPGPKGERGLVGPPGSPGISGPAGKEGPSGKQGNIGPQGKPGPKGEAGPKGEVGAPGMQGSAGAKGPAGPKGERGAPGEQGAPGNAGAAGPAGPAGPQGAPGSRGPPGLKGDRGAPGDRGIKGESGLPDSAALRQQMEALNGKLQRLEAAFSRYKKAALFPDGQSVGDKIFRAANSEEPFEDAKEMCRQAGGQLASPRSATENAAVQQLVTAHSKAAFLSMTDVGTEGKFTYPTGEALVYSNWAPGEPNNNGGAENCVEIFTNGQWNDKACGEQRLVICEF
# Assays:
# [1] = target: IIA NH2-propeptide purified after MMP-9 cleavage of the IIA/SP-D fusion protein (human) (UniProt P02458); assay: self-association; BS3 cross-linking, SDS-PAGE
# mIIA-225 (human; rat) [2] = target: T1, mIIA-225 (human; rat) (UniProt P02458+P35248); assay: self-association; BS3 cross-linking, anti-IIA immunoblot
# mIIA-225 (human; rat) [3] = target: T1, mIIA-225 (human; rat); assay: self-association; BS3 cross-linking, anti-IIA Western blot
# mIIA-237 (human; rat) [4] = target: T2, mIIA-237 (human; rat) (UniProt P02458+P35248); assay: self-association; BS3 cross-linking, anti-IIA immunoblot
# mIIA-237 (human; rat) [5] = target: T2, mIIA-237 (human; rat); assay: self-association; BS3 cross-linking, anti-IIA Western blot
# mIIA-218 (human; rat) [6] = target: T3, mIIA-218 (human; rat) (UniProt P02458+P35248); assay: self-association; BS3 cross-linking, anti-IIA immunoblot
# mIIA-218 (human; rat) [7] = target: T3, mIIA-218 (human; rat); assay: self-association; BS3 cross-linking, anti-IIA Western blot
substance,measurement,setting,value
IIA NH2-propeptide purified after MMP-9 cleavage of the IIA/SP-D fusion protein (from UniProt P02458 26-181),binding,[1],binds
mIIA-225 (from UniProt P02458 26-203; P35248 222-243),binding,mIIA-225 (human; rat) [2],binds
same,binding,mIIA-225 (human; rat) [3],binds
mIIA-237 (from UniProt P02458 26-203; P35248 222-255),binding,mIIA-237 (human; rat) [4],binds
same,binding,mIIA-237 (human; rat) [5],binds
mIIA-218 (from UniProt P02458 26-203; P35248 222-236),binding,mIIA-218 (human; rat) [6],binds
same,binding,mIIA-218 (human; rat) [7],binds

# From patent US20080166798A1
